Experimental data published in the supplement of paper PMC12819154, “High-throughput peptide-centric local stability assay extends protein–ligand identification to membrane proteins, tissues and bacteria” (Nature Structural & Molecular Biology, 2025).
The list shows a part of the results. Small differences around the control level are noise.

Amino acid sequences for entries named in this document (tags omitted). A change or cut given only in a name is not applied to a line headed by its entry.
UniProt Q8IYU8: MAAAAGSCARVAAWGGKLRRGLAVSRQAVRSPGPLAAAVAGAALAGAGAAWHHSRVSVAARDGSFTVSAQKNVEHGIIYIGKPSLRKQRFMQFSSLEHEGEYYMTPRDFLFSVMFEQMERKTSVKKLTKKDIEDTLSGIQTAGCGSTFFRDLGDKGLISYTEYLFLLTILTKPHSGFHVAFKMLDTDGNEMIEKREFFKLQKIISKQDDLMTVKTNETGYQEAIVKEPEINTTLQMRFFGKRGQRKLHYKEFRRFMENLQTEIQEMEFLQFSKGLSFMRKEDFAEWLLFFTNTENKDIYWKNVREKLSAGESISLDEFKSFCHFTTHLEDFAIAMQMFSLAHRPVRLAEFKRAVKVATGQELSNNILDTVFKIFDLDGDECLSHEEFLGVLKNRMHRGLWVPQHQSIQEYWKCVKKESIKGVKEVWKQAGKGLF
UniProt Q8IWE5: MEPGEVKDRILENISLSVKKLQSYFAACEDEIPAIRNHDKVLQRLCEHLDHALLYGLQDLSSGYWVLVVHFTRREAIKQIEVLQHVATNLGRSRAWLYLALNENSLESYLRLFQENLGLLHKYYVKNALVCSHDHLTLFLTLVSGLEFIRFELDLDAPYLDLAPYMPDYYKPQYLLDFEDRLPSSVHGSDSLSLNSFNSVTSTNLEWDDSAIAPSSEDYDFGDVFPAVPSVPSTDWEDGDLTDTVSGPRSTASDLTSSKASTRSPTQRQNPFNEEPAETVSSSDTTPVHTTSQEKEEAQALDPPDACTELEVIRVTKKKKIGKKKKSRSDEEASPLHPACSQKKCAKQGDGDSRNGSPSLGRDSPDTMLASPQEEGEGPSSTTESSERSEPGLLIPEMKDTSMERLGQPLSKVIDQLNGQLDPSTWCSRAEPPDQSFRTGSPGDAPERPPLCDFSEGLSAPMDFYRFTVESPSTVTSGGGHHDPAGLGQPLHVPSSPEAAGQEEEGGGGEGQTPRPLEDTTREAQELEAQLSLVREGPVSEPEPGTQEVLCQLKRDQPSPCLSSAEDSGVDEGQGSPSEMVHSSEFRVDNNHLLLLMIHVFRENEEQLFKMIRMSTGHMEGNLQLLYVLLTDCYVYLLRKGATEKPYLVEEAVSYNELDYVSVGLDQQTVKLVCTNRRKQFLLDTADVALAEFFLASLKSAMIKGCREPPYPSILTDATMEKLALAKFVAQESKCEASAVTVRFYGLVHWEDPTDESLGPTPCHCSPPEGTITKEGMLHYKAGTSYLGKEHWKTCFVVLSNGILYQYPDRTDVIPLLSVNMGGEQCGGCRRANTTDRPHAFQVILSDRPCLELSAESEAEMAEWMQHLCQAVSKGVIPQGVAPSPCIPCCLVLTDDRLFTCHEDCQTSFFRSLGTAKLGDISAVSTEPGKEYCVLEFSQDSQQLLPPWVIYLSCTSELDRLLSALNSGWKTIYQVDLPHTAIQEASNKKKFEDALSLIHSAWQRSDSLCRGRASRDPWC
UniProt Q8IVS2: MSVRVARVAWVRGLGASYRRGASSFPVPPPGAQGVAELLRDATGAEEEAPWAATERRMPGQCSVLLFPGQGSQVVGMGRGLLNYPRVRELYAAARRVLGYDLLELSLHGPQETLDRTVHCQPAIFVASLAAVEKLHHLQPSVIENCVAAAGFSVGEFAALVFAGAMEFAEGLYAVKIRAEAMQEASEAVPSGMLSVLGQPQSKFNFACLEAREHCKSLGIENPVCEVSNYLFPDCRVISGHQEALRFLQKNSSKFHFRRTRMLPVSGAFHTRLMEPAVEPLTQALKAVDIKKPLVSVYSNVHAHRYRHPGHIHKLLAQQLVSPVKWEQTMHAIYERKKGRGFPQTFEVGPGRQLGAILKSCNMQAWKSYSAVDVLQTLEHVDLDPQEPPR
UniProt Q8IV50: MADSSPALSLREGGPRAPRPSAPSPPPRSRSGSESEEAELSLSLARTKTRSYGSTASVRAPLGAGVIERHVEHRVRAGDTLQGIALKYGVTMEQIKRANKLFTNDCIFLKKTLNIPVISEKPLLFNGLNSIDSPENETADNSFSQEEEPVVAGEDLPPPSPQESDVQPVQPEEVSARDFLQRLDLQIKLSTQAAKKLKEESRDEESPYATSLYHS
UniProt Q86X02: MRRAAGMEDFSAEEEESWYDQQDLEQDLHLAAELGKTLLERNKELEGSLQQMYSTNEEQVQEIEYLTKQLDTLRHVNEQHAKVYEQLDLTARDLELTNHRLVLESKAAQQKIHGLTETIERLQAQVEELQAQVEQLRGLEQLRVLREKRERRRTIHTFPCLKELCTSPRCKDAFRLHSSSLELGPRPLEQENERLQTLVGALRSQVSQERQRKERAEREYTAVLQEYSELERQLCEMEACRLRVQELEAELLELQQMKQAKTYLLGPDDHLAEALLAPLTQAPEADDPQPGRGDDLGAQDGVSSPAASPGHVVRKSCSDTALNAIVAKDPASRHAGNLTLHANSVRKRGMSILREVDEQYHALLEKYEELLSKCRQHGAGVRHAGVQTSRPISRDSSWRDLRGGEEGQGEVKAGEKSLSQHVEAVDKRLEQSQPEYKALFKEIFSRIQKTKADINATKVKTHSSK
UniProt Q8IYW5, whole entry: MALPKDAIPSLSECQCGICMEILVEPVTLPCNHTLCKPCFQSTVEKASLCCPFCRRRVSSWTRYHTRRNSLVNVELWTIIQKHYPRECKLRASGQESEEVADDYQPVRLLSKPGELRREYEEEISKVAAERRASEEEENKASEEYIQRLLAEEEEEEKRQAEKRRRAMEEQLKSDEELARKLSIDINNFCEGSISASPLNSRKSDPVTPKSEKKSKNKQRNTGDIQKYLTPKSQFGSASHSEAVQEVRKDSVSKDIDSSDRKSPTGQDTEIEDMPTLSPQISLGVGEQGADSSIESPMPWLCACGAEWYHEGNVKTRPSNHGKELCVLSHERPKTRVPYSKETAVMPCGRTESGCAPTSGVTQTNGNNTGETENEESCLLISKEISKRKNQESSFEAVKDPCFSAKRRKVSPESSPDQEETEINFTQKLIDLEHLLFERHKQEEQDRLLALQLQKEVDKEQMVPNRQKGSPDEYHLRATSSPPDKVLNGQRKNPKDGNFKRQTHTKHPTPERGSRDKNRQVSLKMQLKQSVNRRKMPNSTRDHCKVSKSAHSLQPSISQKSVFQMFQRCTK
UniProt Q86X95: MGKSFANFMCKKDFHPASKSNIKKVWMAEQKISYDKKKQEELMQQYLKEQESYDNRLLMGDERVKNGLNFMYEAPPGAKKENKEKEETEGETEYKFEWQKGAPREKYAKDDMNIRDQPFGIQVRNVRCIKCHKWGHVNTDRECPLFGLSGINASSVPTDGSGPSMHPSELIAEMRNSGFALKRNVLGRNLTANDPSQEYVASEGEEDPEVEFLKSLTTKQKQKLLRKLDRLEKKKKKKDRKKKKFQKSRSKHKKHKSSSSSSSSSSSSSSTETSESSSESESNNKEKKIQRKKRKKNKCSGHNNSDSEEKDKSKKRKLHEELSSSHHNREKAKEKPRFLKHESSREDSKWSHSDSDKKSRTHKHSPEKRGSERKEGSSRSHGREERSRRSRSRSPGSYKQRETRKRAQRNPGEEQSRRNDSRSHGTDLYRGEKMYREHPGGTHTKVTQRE
UniProt Q8IUI8: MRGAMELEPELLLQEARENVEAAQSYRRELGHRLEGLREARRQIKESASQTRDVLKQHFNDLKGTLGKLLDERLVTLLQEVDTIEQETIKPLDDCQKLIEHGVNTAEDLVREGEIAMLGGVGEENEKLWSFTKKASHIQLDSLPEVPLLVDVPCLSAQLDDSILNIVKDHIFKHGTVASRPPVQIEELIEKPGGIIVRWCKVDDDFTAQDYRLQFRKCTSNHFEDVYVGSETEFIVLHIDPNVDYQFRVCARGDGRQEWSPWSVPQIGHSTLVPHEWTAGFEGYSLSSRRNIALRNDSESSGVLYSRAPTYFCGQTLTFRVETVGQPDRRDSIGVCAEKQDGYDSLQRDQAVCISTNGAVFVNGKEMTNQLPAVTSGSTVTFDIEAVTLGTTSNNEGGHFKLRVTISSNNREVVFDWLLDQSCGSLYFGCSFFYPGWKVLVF
UniProt Q86XR8: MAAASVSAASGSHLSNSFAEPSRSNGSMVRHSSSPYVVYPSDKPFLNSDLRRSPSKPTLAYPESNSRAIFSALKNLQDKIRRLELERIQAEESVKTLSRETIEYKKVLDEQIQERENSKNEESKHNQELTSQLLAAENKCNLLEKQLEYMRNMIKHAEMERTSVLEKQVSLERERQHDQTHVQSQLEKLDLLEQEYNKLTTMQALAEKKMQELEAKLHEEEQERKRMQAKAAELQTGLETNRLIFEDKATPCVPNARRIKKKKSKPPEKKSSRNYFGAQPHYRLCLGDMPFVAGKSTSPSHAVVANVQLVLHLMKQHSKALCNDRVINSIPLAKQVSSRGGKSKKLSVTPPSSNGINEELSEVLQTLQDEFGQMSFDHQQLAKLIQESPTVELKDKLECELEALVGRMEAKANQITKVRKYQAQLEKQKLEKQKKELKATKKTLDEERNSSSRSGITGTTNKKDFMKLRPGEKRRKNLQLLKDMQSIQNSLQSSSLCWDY
UniProt Q8IXQ4: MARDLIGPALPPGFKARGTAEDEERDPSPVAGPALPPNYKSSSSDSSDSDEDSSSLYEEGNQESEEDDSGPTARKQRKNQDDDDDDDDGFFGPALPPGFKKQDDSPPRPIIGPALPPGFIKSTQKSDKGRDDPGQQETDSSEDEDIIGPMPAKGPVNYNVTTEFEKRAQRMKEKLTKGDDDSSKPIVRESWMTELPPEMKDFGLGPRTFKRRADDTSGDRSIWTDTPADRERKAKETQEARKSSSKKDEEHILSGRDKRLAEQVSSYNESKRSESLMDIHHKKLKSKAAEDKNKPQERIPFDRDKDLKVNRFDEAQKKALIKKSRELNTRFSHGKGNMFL
UniProt Q8IYU2: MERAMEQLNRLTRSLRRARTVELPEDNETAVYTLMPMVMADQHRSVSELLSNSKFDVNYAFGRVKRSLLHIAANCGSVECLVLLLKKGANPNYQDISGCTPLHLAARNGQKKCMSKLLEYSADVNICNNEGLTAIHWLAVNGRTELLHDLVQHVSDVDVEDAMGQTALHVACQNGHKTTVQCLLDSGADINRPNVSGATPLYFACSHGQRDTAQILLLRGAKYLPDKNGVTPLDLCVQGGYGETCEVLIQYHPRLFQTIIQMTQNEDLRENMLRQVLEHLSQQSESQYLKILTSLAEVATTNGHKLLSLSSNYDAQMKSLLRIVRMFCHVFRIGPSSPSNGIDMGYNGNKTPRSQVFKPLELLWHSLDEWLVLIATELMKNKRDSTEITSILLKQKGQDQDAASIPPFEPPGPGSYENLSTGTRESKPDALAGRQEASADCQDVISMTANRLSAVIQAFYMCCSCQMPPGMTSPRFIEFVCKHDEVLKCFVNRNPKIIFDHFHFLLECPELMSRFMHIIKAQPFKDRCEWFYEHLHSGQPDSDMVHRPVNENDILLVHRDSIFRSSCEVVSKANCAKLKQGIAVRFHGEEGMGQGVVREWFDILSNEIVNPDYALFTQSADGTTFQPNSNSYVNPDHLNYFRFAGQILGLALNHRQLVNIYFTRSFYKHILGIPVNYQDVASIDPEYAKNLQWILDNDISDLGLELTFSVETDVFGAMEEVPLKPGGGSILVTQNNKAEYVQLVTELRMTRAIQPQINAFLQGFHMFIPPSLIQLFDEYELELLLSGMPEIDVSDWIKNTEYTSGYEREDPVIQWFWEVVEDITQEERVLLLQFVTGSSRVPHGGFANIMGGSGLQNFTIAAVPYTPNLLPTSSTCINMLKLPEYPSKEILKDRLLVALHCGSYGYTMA
UniProt Q86Y56: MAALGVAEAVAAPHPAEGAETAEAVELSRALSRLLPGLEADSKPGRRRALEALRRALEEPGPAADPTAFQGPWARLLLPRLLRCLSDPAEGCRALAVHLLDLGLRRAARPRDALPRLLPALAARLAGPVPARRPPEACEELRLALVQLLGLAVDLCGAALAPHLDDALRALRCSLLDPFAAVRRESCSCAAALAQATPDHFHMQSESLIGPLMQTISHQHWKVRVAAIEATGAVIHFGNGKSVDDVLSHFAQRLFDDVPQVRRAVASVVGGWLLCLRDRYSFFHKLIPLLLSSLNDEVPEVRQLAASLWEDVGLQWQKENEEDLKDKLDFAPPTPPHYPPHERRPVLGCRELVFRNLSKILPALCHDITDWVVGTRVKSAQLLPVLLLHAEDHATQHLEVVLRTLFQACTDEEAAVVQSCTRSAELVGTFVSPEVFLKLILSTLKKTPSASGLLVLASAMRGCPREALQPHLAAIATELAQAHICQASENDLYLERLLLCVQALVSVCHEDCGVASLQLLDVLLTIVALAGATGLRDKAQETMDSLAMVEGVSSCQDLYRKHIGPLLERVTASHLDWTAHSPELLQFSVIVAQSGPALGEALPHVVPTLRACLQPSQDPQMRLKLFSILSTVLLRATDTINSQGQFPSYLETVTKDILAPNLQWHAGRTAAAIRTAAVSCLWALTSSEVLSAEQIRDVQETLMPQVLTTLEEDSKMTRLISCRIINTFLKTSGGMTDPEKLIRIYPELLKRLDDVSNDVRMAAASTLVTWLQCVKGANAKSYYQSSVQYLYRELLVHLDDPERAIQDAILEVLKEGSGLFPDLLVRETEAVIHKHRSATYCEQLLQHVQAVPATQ

The targets below were run with Cc1nc(Nc2ncc(C(=O)Nc3c(C)cccc3Cl)s2)cc(N2CCN(CCO)CC2)n1 [dasatinib] (assay: log2 fold change of tryptic peptide abundance, ligand vs vehicle (limited proteolysis) (log2 ratio); higher = more trypsin-susceptible (destabilized)). Settings: ligand concentration: 5 uM; sample: K562 cleared lysate.

Row | Target | log2 fold change
1 | UniProt Q8IYU8 (peptide sequence: NVEHGIIYIGKPSLRK, peptide start residue: 72) | -0.256
2 | ADGRG2 (peptide sequence: RYLCCGKLR, peptide start residue: 892) (UniProt Q8IZP9) | 0.132
3 | UniProt Q8IVL6 (peptide sequence: FEGLTVLK, peptide start residue: 510) | 0.0956
4 | PLEKHM2 (peptide sequence: SRSDEEASPLHPACSQKK, peptide start residue: 327) (UniProt Q8IWE5) | 0.421
5 | PPARGC1B (peptide sequence: HATAQPASQAGQK, peptide start residue: 670) (UniProt Q86YN6) | -0.197
6 | UniProt Q8IVS2 (peptide sequence: KPLVSVYSNVHAHRYR, peptide start residue: 292) | -0.244
7 | LYSMD2 (peptide sequence: AGDTLQGIALK, peptide start residue: 77) (UniProt Q8IV50) | 0.0804
8 | CDR2L (peptide sequence: GGEEGQGEVK, peptide start residue: 403) (UniProt Q86X02) | 0.502
9 | KIAA0319L (peptide sequence: LLHGQNGSVPNGQTPLK, peptide start residue: 1024) (UniProt Q8IZA0) | 0.432
10 | UniProt Q8IYA2 (peptide sequence: ENVQLHKEVEEEMEK, peptide start residue: 469) | 0.494
11 | RNF168 (peptide sequence: GSPDEYHLR, peptide start residue: 469) (UniProt Q8IYW5) | 0.175
12 | AMOTL1 (peptide sequence: LQQALTQLQSACEKR, peptide start residue: 612) (UniProt Q8IY63) | -0.184
13 | UniProt Q8IWG1 (peptide sequence: KVKTYQK, peptide start residue: 843) | -0.151
14 | GCC2 (peptide sequence: YECELENLR, peptide start residue: 295) (UniProt Q8IWJ2) | 0.361
15 | UniProt Q8N0X7 (peptide sequence: ELAPHVKK, peptide start residue: 508) | 0.184
16 | UniProt Q86X95 (peptide sequence: SHGTDLYR, peptide start residue: 423) | 0.196
17 | CRLF3 (peptide sequence: ENVEAAQSYRR, peptide start residue: 18) (UniProt Q8IUI8) | 0.217
18 | DDX42 (peptide sequence: VSYLVFDEADR, peptide start residue: 401) (UniProt Q86XP3) | -0.192
19 | MDP1 (peptide sequence: LQSLGVPGAAASR, peptide start residue: 58) (UniProt Q86V88) | 0.0434

Row | Target | log2 fold change
20 | MIB1 (peptide sequence: LQQQLQDIK, peptide start residue: 950) (UniProt Q86YT6) | -0.427
21 | ITPRIP (peptide sequence: LGEDMLCLLHGR, peptide start residue: 262) (UniProt Q8IWB1) | 0.0846
22 | UniProt Q8IUE6 (peptide sequence: TESHKPGK, peptide start residue: 121) | -0.0944
23 | CEP57 (peptide sequence: NYFGAQPHYR, peptide start residue: 274) (UniProt Q86XR8) | 0.337
24 | UniProt Q8IXQ4 (peptide sequence: DLIGPALPPGFK, peptide start residue: 4) | -0.128
25 | SIRT2 (peptide sequence: NLFSQTLSLGSQKER, peptide start residue: 43) (UniProt Q8IXJ6) | -0.216
26 | UBR2 (peptide sequence: RGNPLHLCKER, peptide start residue: 1710) (UniProt Q8IWV8) | 0.601
27 | UniProt Q8N142 (peptide sequence: VTVVLGAQWGDEGKGK, peptide start residue: 30) | 0.25
28 | UniProt Q8IZM8 (peptide sequence: IPEAMALIK, peptide start residue: 209) | -0.285
29 | UBR1 (peptide sequence: NDEITHDKEKAER, peptide start residue: 1007) (UniProt Q8IWV7) | -1.58
30 | VRK3 (peptide sequence: SKGSGSRPPTPK, peptide start residue: 95) (UniProt Q8IV63) | 0.739
31 | DCP1B (peptide sequence: DISLAALQR, peptide start residue: 15) (UniProt Q8IZD4) | -0.391
32 | HEATR5A (peptide sequence: SHPFTNPR, peptide start residue: 1209) (UniProt Q86XA9) | -0.433
33 | HACE1 (peptide sequence: DSTEITSILLK, peptide start residue: 384) (UniProt Q8IYU2) | -0.106
34 | UniProt Q86Y56 (peptide sequence: CSLLDPFAAVRR, peptide start residue: 173) | 0.158
35 | COMMD2 (peptide sequence: LDVQLASR, peptide start residue: 131) (UniProt Q86X83) | -0.111
36 | DHX40 (peptide sequence: SRDLQEER, peptide start residue: 21) (UniProt Q8IX18) | -0.387
37 | WDR75 (peptide sequence: VWILTDDSDIYKK, peptide start residue: 472) (UniProt Q8IWA0) | 1.01

Quoted at random: 2 records from the list, in no set order.
Row | Target | log2 fold change
17 | CRLF3 (peptide sequence: ENVEAAQSYRR, peptide start residue: 18) (UniProt Q8IUI8) | 0.217
13 | UniProt Q8IWG1 (peptide sequence: KVKTYQK, peptide start residue: 843) | -0.151
